Source: patent publication US7129053 (DAKOCYTOMATION DENMARK A S, dated 2006)
No constants are given. Whether binding was seen depends on the method and setting. Some results given as binding are weak or reduced against the parent protein; the word gives no strength.

Chains of the proteins cited; added tags and fusions are not shown.
UniProt P77872: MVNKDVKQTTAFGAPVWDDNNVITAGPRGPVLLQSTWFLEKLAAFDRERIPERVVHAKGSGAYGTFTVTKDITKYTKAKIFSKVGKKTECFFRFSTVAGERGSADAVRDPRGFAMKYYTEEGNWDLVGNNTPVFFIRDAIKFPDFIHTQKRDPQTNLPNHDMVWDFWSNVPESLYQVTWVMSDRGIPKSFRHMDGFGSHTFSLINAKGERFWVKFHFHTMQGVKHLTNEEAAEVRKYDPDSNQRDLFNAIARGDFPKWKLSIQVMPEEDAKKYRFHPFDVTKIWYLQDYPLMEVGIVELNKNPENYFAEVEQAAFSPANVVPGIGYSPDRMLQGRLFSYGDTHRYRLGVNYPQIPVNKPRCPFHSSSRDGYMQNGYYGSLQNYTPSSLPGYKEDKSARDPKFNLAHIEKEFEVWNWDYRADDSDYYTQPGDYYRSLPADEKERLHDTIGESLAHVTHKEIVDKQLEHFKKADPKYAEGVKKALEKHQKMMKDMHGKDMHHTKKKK

B1: monoclonal antibody HP25.6m/1B5 (antibody, IgG1, V domains shown)
VH: EVQLQQSGAELVKPGASVKLSCTSSGFNIKDTYVHWMKQRPEQGLEWIGKIDPANGKTKYDPIFQAKATMTADASSNTAYLQLSSLTSEDTAVYYCALPIYYASSWFAYWGQGTLVTVSA
VL: DIVMTQSHKFMSTSVGDRVSITCKASQDVGTSVAWYQQKPGHSPKLLIYWTSTRHTGVPDRFTGSGSGTDFILTISNVQSEDLADYFCQQYSSSPTFGGGAKVEIK
notes: also called HP25.6m1/1B5
B2: monoclonal antibody HP25.2m/2H10 (antibody, IgG2a, V domains shown)
VH: VQLLEQPGAELAKPGASVKMSCKASGYTFTNYWIHWVKQRPGQGLKWIGYINPATGSTSYNQDFQDRATLTADKSSTTAYMQLTSLTSEDSSVYYCAREGYDGFDSWGQGTTLTVSS
VL: ELVLTQSPAIMSASPGEKVTMTCSASSSVNYMYWYQQKSGTSPKRWIYDTSKLASGVPARFSGSGSGTSYSLTLSSMEAEDAATYYCQQWSSNPYTFGGGTKLEIK
notes: also called HP25.2m/2H10 (K10); HP25.2m/2Hallin (K10)

Columns and labels:
[1] = molecular target: H. pylori catalase (Helicobacter pylori) (UniProt P77872); experiment: Western blot on reduced purified antigen, culture supernatant
[2] = molecular target: H. pylori catalase (Helicobacter pylori) (UniProt P77872); experiment: Western blot on reduced purified antigen; member identified by Table 2

Row | Binder | binding [1] | binding [2]
1 | B1 | binds | binds
2 | B2 | binds | binds
